Test results taken from PubChem BioAssay AID493014 (National Center for Advancing Translational Sciences (NCATS), 2011).
Some of the results follow. These are further read-outs of the screen, such as a control signal, another cell line or another target. No call is given for them. The list favours compounds with an active or inconclusive main result. The note in brackets gives the kind of curve behind each potency; many fits are weak.

Assay: qHTS Assay to Find Inhibitors of Chronic Active B-Cell Receptor Signaling
Conditions: ABC-DLBCL IkBa-CBG/CBR reporter, luminescence ratio (green luciferase fused to IkBa over red control in TMD8 lymphoma cells), 4 h
Method in brief: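 TMD8 human ABC-DLBCL cells with doxycycline-inducible IκBα–green luciferase fusion and unfused red luciferase, in 0.5% FBS medium; compounds up to 46 uM, 4 h at 37C. Green/red luminescence ratio, filter-overlap corrected, fitted to concentration-response curves.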

[1] = measured here: CBR red luminescence, cell number
[2] = measured here: IkBa-CBG green luminescence

SMILES | AC50 [1] | AC50 [2]
O=C(Nc1ccc(N2CCOCC2)c(F)c1)c1ccncc1 | 29.1 µM [falling, single point] | –
CCOC(=O)C1=C(C)NC(C)=C(C(=O)OCC)C1/C=C/c1ccccc1OC | 29.1 µM [falling, single point] | –
O=C(CSc1nnnn1C1CCCC1)NCCc1ccccc1 | 5.01 µM [rising, partial curve, poor fit] | –
Cn1cccc1Cc1nnc(SCC(=O)Nc2nccs2)n1CCc1ccccc1 | 29.1 µM [falling, partial curve, poor fit] | –
CNC(=O)c1oc(-c2ccc(Cl)cc2)nc1C | 8.91 µM [rising, partial curve, poor fit] | –
O=C(Nc1ccccn1)Nc1ccccc1Cl | 35.5 µM [rising, single point] | –
COc1cccc(-c2ccc(NC(=O)C3CCCN(Cc4cnc(C)n4C)C3)cc2)c1 (stereo not drawn) | 28.2 µM [falling, single point] | –
Cc1nnc(NC(=O)c2ccc3ccccc3c2)o1 | 35.5 µM [falling, single point] | 35.5 µM [falling, single point]
O=C(O)c1nc2nc(Cl)c(Cl)nc2[nH]1 | 11.2 µM [falling, partial curve, poor fit] | –
CC1CC(CN)CC(CO)C1 (stereo not drawn) | 2.51 µM [rising, single point] | –
CC[C@H](C)[C@H](NC(N)=O)C(=O)Nc1ccc(NC(C)=O)cc1 | 6.31 µM [rising, single point] | –
COc1ccc2[nH]c(=O)c(CN(c3ccccc3OC)S(=O)(=O)c3ccccc3)cc2c1 | 3.98 µM [falling, partial curve, poor fit] | –
O=C(CCc1ccccc1)Nc1cc(Cl)ccc1O | 16.4 µM [falling, single point] | –
CCOc1ccc(C(=O)NCC(=O)OCc2c(F)cccc2Cl)cc1OCC | 25.9 µM [rising, single point] | –
COc1cc(C(=O)NCc2ccc(-c3nc4ccccc4s3)cc2)cc(OC)c1OC | 1.3 µM [rising, full curve] | –
N#CCCN(C(=O)CCl)c1cccc(Cl)c1 | 11.2 µM [falling, partial curve] | –
COc1ccc(NC(=O)C2CCCN2S(=O)(=O)c2ccc3c(c2)CCC(=O)N3)cc1Cl (stereo not drawn) | 32.6 µM [falling, single point] | –
COc1ccc(NC(=O)c2cc(S(=O)(=O)NCC3COc4ccccc4O3)ccc2F)cc1 (stereo not drawn) | 7.31 µM [falling, partial curve] | –
COc1ccccc1N1CCN(C(=O)c2ccc3c(=O)n(Cc4ccc5c(c4)OCO5)c(=O)[nH]c3c2)CC1 | 3.98 µM [falling, full curve] | –
C/C=N/N(c1ccccc1)c1ccccc1 | 10 µM [rising, partial curve, poor fit] | –
Cc1ccnc(NCc2c(O)ccc3ccccc23)c1 | 6.31 µM [falling, partial curve, poor fit] | –
O=C1CC(c2ccccc2F)c2cc3c(cc2N1)CCC3 (stereo not drawn) | 0.708 µM [falling, full curve] | –

Sorted by length of the SMILES (rising): 3 of the compounds above
SMILES | AC50 [1] | AC50 [2]
CC1CC(CN)CC(CO)C1 (stereo not drawn) | 2.51 µM [rising, single point] | –
O=C(Nc1ccccn1)Nc1ccccc1Cl | 35.5 µM [rising, single point] | –
COc1ccc(NC(=O)C2CCCN2S(=O)(=O)c2ccc3c(c2)CCC(=O)N3)cc1Cl (stereo not drawn) | 32.6 µM [falling, single point] | –

Later entries:

SMILES | AC50 [1] | AC50 [2]
Cc1cc(/C=C(/C#N)c2cccc(F)c2)c(C)n1-c1cccnc1 | 3.66 µM [rising, single point] | –
CCOC(=O)CC1C(=O)NC2CCCCC2N1C(=O)Nc1ccc(Cl)cc1 (stereo not drawn) | 7.31 µM [rising, partial curve, poor fit] | –
COc1cc(/C=C/C(=O)OCC(=O)Nc2cccc(Oc3ccccc3)c2)ccc1O | 18.4 µM [falling, single point] | –
Cc1cccc2cc(COC(=O)c3ccccc3)c(=O)[nH]c12 | 8.91 µM [rising, partial curve, poor fit] | –
O=C(N/N=C1/CC2C=CCC12)c1ccco1 (stereo not drawn) | 20.6 µM [falling, partial curve] | –
O=C(NC1CCCCC1)NC1CC2CCCC(C1)N2C1CCCC1 (stereo not drawn) | 3.55 µM [rising, single point] | –
CC(=O)c1cccc(NC(=O)c2cc(C)nn2-c2ccccc2)c1 | 35.5 µM [rising, single point] | –
COc1ccc(-n2nc(C(=O)NCC(=O)NCCCN3CCC(C)CC3)c3ccccc3c2=O)cc1Cl | 11.2 µM [falling, single point] | –
Cc1ccc(C(C)NC(=O)/C(C#N)=C\c2c(C)[nH]c3ccccc23)cc1 (stereo not drawn) | 16.4 µM [falling, partial curve, poor fit] | –
O=C(O)c1ccccc1OCCOCCOc1ccccc1C(=O)O | 29.1 µM [rising, single point] | –
CC(/C=N\NC(=O)c1cc(C)oc1C)=C\c1ccccc1 | 0.259 µM [falling, full curve] | –
Cc1cc2c(c(=O)n1C)C(Cc1ccccc1)C(C#N)=C(N)O2 (stereo not drawn) | 11.6 µM [falling, partial curve, poor fit] | –
OC(COC(c1ccc(Cl)cc1)c1ccc(Cl)cc1)CN1CCN(c2ccccn2)CC1 (stereo not drawn) | 3.26 µM [rising, single point] | –
CC12CCC(=O)C=C1CCC1C2CCC2(C)C1CC[C@]2(O)C(=O)CO (stereo partly drawn) | 12.6 µM [rising, partial curve, poor fit] | –
N#CCc1c(C#N)c(N)nc(N2CCN(S(=O)(=O)c3ccccc3)CC2)c1C#N | 25.9 µM [rising, partial curve, poor fit] | –
NC(=O)C1CCN(c2nc(-c3ccccc3Br)cs2)CC1 | 0.366 µM [falling, full curve] | –
FC(F)(F)c1ccccc1-c1nc(-c2ccncc2)no1 | 0.562 µM [rising, full curve, poor fit] | –
C1=C(c2ccccc2)N2CCN=C2S1 | 0.164 µM [falling, full curve] | –
CCOc1ccccc1N1CCN(C(=O)c2cc3cc(OC)ccc3[nH]2)CC1 | 8.91 µM [falling, partial curve, poor fit] | –
Cc1cc(C(=O)NNC(=O)c2nn(C)c(=O)c3ccccc23)c(C)o1 | 10 µM [falling, partial curve, poor fit] | –
COc1cccc(CN(C)C(=O)c2cc(COc3ccc4ncccc4c3)on2)c1 | 3.98 µM [rising, single point] | –
CCCCCC1CCC(C(=O)NNC(=S)NCC)CC1 (stereo not drawn) | 35.5 µM [falling, single point] | –

Entries of single compounds, quoted from the list. Order of values: AC50 [1] | AC50 [2]
CCOc1ccccc1N1CCN(C(=O)c2cc3cc(OC)ccc3[nH]2)CC1 as listed: 8.91 µM [falling, partial curve, poor fit] | –
OC(COC(c1ccc(Cl)cc1)c1ccc(Cl)cc1)CN1CCN(c2ccccn2)CC1 (stereo not drawn) as listed: 3.26 µM [rising, single point] | –
N#CCc1c(C#N)c(N)nc(N2CCN(S(=O)(=O)c3ccccc3)CC2)c1C#N as listed: 25.9 µM [rising, partial curve, poor fit] | –

Later entries

SMILES | AC50 [1] | AC50 [2]
C=CCn1c(=S)[nH]c2cc(-c3ccccc3)sc2c1=O | 1.41 µM [falling, full curve] | –
COc1ccc(NCC(=O)NN=C2CCS(=O)(=O)c3ccc(F)cc32)cc1 | 23.1 µM [rising, partial curve, poor fit] | –
Cc1cc(C(=O)OCC(=O)Nc2cc(S(=O)(=O)N3CCOCC3)ccc2Cl)c(C)o1 | 23.1 µM [falling, single point] | –
COc1ccc(-c2cc(C(=O)O)c(C)o2)cc1OC | 0.0164 µM [falling, full curve, poor fit] | –
O=C(Cc1cccs1)NCc1cc(Cl)cc(Cl)c1 | 35.5 µM [rising, single point] | –
CC(=O)Nc1ccc(-c2nnc(SCc3c(C)cc(C)cc3C)n2C)cc1 | 29.1 µM [falling, partial curve, poor fit] | –
O=c1[nH]cnc2c1cnn2Cc1ccccc1 | 15.8 µM [falling, single point] | 14.1 µM [rising, partial curve, poor fit]
CC(=O)Nc1ccc(NC(=O)COC(=O)/C(=C/c2ccccc2)n2nnnc2C)cc1 | 6.31 µM [falling, full curve] | –
COc1cccc(-c2nnc(Nc3nc4c(F)cccc4s3)o2)c1 | 2.06 µM [falling, full curve] | 4.61 µM [falling, full curve]
CC(=O)Oc1cc2c(cc1Cl)C1(CC(c3ccccc3Cl)O2)CC(C)(C)NC(=S)N1 (stereo not drawn) | 25.9 µM [rising, single point] | –
CC(C)(C)NC(=O)CN1CCN(C(=O)CCl)CC1 | 3.16 µM [rising, single point] | –
Cc1cccn2c(=O)c(C=NCCO)c(NCc3ccco3)nc12 | 0.461 µM [falling, partial curve, poor fit] | –
CCOc1cc(-c2nc(C)c(C(C)=O)n2O)ccc1OCC(=O)Nc1cccc(C)c1 | 14.1 µM [falling, partial curve, poor fit] | –
CCNCCC(=O)N1c2ccccc2Sc2ccc(NC(=O)OCC)cc21 | 25.9 µM [falling, single point] | –
COC(=O)C1C(O)=C(C=Nc2ccccc2)C(=O)CC1(C)C (stereo not drawn) | 15.8 µM [rising, single point] | 11.2 µM [falling, partial curve]
CC(C)C(NC(=O)C1CCCCC1)C(=O)NC1=NCCS1 (stereo not drawn) | 0.00461 µM [rising, full curve, poor fit] | –
COc1ccc(/C=N/NC(=O)c2cccc(O)c2)cc1Cn1nc(C)c([N+](=O)[O-])c1C | 15.8 µM [falling, partial curve] | –
CC(C)CCNC(=O)CN(Cc1cccs1)C(=O)CCC(=O)Nc1nccs1 | 29.1 µM [falling, single point] | –
CCC(C)(C)NC(=O)C(c1ccco1)N(C(=O)Cn1nnc2ccccc21)c1ccc2c(c1)OCO2 (stereo not drawn) | 29.1 µM [falling, single point] | –
CCOC(=O)N1CCN(C(=O)CCn2c(=S)[nH]c3ccccc3c2=O)CC1 | 5.01 µM [rising, partial curve, poor fit] | –
